Test results as given in PubChem BioAssay AID2685 (National Center for Advancing Translational Sciences (NCATS), 2010).
This is one part of the list. Shown are side measurements of this screen, not its main read-out; they come without a call. Most of these compounds were active or inconclusive in the main read-out, so they are no random draw. Words in brackets tell the shape of the fitted curve; partial curves, single points and poor fits give uncertain potencies.

Assay: qHTS Assay for Lipid Storage Modulators in Drosophila S3 Cells;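 on cell number change: cells counted by Cell Tracker Red CMTPX staining in the red channel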
Conditions: BODIPY lipid droplet fluorescence, 18-24 h; for cell number change: measured here: cell count max response, cells fed with added oleic acid
How it was run: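 Drosophila S3 cells loaded with oleic acid (400 uM, as added) and compounds at several concentrations; lipid droplets imaged by 488-nm laser-scanning cytometry, 500–530 nm intensity and object ratio to cell channel. Percent activity normalized to 20 uM Triacsin C.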

[1] = measured here: cell number channel AC50, cells fed with added oleic acid
[2] = measured here: lipid fluorescence (Fed channel) AC50, cells fed with added oleic acid

| SMILES | cell number change [%] | AC50 [1] | AC50 [2] |
| --- | --- | --- | --- |
| CCOC(=O)c1cc(-c2ccccc2)sc1NC(=O)C(C)N1C(=O)NC(C)(c2ccc(Cl)cc2)C1=O (stereo not given) | -7.63 | – | – |
| Cc1cccc(C)c1NC(=O)CCCN1CC(C)OC(C)C1 (stereo not given) | 9.48 | – | – |
| OCCCNc1nc(-c2ccc(Cl)cc2)nnc1-c1ccccc1 | – | 0.651 µM [rising, single point] | 0.0146 µM [rising, full curve, poor fit] |
| CCC(=N\NC(=O)COc1ccccc1OC)/C(CC)=N/NC(=O)COc1ccccc1OC | 6.72 | – | – |
| COc1cc(/C=C/C2=NC(=O)C(C)(C)O2)ccc1O | -10.6 | – | 6.51 µM [falling, partial curve, poor fit] |
| COc1ccc(CNC(=O)C2CCN(C(=O)[C@@H]3Cc4ccccc4CN3)CC2)cc1 | -21 | 1.46 µM [rising, partial curve] | – |
| CC1CN(S(=O)(=O)Cc2ccccc2)CC(C)O1 (stereo not given) | -1.82 | – | – |
| COc1ccc(CCNC(=O)COc2cc(O)c3c(c2)OC(C)(C)CC3=O)cc1OC | -19.9 | – | 5.8 µM [falling, full curve] |
| Cc1ccc2c(COC(=O)c3ccc(C)c(C)c3)cc(=O)oc2c1 | -12.4 | 0.116 µM [falling, full curve, poor fit] | – |
| COc1ccc(CN(C)CC(=O)Nc2cccc(S(N)(=O)=O)c2)c(OC)c1OC | 141 | 18.4 µM [rising, partial curve] | 20.6 µM [rising, partial curve] |
| O=C(CCCc1ccccc1)NCc1ccccn1 | 16.1 | 0.651 µM [rising, full curve, poor fit] | – |
| Cc1ccccc1NC(=O)Cc1nc(COC(=O)CCc2ccccc2)cs1 | -9.5 | – | 0.231 µM [falling, partial curve, poor fit] |
| O=c1c2cccnc2n(-c2ccccc2)n1Cc1c(Cl)cccc1Cl | -9.78 | – | – |
| O=C(CSc1nc2ncc(Cl)cc2[nH]1)NC1CCS(=O)(=O)C1 (stereo not given) | -22.5 | – | – |
| CCOc1ccc(-c2cc(C(=O)N/N=C(\C)c3cccnc3)c3ccccc3n2)c(OCC)c1 | -7.92 | – | 0.58 µM [rising, single point] |
| O=C(Nc1ccc(N2CCN(Cc3ccccc3)CC2)cc1)c1ncn[nH]1 | -0.468 | 0.103 µM [falling, single point] | – |
| O=C(NCc1cccnc1)Nc1ccc(Cl)cc1 | 3.18 | – | 2.31 µM [rising, partial curve] |
| CCOC(=O)CN(C(=O)CSc1nnc(COc2ccc(OC)cc2)n1CC)c1ccccc1 | -17.7 | – | 29.1 µM [falling, single point] |
| CCCCOc1cccc(C(=O)Nc2ccc(S(=O)(=O)Nc3cc(C)on3)cc2)c1 | -28.9 | – | 5.62 µM [falling, single point] |
| COCCCn1c(-c2cccs2)nc2nc3ccccc3nc21 | 15.5 | – | – |
| CN(C)c1nc(N)nc(N(c2ccccc2)c2ccccc2)n1 | 5.74 | – | 25.9 µM [rising, single point] |
| COc1ccc(C(=O)N2CCn3c(C)ccc3C2C)cc1 (stereo not given) | 12.2 | – | – |

| SMILES | cell number change [%] | AC50 [1] | AC50 [2] |
| --- | --- | --- | --- |
| CSc1ccc(CNc2nnnn2C)cc1 | -16 | – | – |
| COc1ccccc1-n1c(=O)[nH]c2c(C(N)=O)nc(C3CCCCC3)nc21 | – | 6.51 µM [falling, single point] | – |
| CCOC(=O)N1CCC(N(CCOC)C(=O)Nc2ccc(C)c(C)c2)CC1 | -0.71 | – | – |
| c1ccc(CCCc2nc(-c3cccnc3)no2)cc1 | -18.8 | – | – |
| COc1ccc(C(=O)CSc2nnc(-c3cc(C)on3)o2)cc1 | -44.1 | 29.1 µM [falling, single point] | – |
| NC(=O)C1CCN(C2CC(=O)N(Cc3ccc(N4CCCC4=O)cc3)C2=O)CC1 (stereo not given) | 1.77 | 0.146 µM [falling, full curve, poor fit] | 18.4 µM [falling, partial curve] |
| CC1(C)N=C(/C=N/O)C=[N+]1[O-] | – | – | 5.8 µM [falling, full curve] |
| Cc1ccccc1-n1nc(-c2cccnc2)cc1C(=O)NN | 22.6 | – | 0.651 µM [rising, full curve, poor fit] |
| O=C(CNc1ccc(Br)cc1)Nc1cccc(S(=O)(=O)N2CCCC2)c1 | 5.76 | 7.31 µM [falling, single point] | 0.651 µM [falling, full curve, poor fit] |
| OC(COc1ccc2c(c1)OCO2)CN1CCN(c2ccccc2)CC1 (stereo not given) | 20.5 | – | – |
| O=C(COc1ccc2ccccc2c1)N1CCN(c2ccccc2O)CC1 | -31.4 | 18.4 µM [falling, partial curve, poor fit] | – |
| COc1ccc(C(=O)c2ccc(CC#N)s2)cc1 | 3.77 | – | 29.1 µM [rising, single point] |
| CC1(C)CC2(CCCN3C(=O)CSC32)CCS1 (stereo not given) | 44 | 29.1 µM [rising, single point] | 29.1 µM [rising, single point] |
| CC(=O)c1ccc(N2CCN(C(=O)C3CCCN3S(=O)(=O)c3cccc4nsnc34)CC2)cc1 (stereo not given) | -27.4 | – | 6.51 µM [rising, single point] |
| Cc1cc(OCC(=O)N(C)C2CCCCC2)cc(C)c1Cl | -25 | – | – |
| COc1ccc(C(=O)NC(=S)Nc2ccc(S(=O)(=O)Nc3cc(OC)nc(OC)n3)cc2)cc1 | -7.98 | – | 0.103 µM [rising, partial curve, poor fit] |
| COc1ccc(/C=N/NC(=O)c2cccc(NC(=O)c3ccc(Cl)cc3)c2)c(OC)c1 | -34.5 | 16.4 µM [falling, single point] | 1.84 µM [rising, full curve] |
| Cc1c(NS(=O)(=O)c2ccc3c(c2)n(C)c(=O)n3C)c(=O)n(-c2ccccc2)n1C | 2.82 | – | 0.116 µM [falling, single point] |
| N#C/C(=N\Nc1ccc(F)cc1)C(=N)N1CCCCC1 | 54.8 | 9.2 µM [rising, partial curve] | 4.61 µM [rising, single point] |
| CCOc1ccc(C2=Nn3c(nnc3-c3ccco3)SC2)cc1 | -20 | 2.91 µM [falling, partial curve] | 1.84 µM [falling, full curve] |
| Cc1c(C(=O)N(Cc2nnc(-c3ccccc3Cl)o2)C2CC2)oc2ccccc12 | -32.4 | 16.4 µM [falling, single point] | – |
| O=c1c(-c2nnc(SCc3ccc(Cl)cc3Cl)o2)cccn1Cc1ccccc1 | 25.6 | – | – |

| SMILES | cell number change [%] | AC50 [1] | AC50 [2] |
| --- | --- | --- | --- |
| Cc1ccc(C)c(/C(O)=C2/C(=O)C(=O)N(CCN3CCOCC3)C2c2ccco2)c1 (stereo not given) | 11.2 | – | 6.51 µM [rising, partial curve, poor fit] |
| COc1ccc(N=Cc2c(O)[nH]c3ccccc23)cc1 | -20.1 | – | 25.9 µM [falling, partial curve, poor fit] |
| CC(=O)c1ccccc1NC(=O)CSc1nnc2ccccn12 | – | 1.84 µM [rising, partial curve] | 5.17 µM [rising, single point] |
| Cc1ccc(C)c(OCC(=O)O/N=C(\N)c2cccnc2)c1 | – | 2.31 µM [rising, partial curve] | – |
| COc1cc(NC(=S)NC(=O)c2ccccc2C)ccc1NC(=O)c1cccs1 | – | 0.92 µM [rising, full curve] | 0.92 µM [rising, full curve] |
| O=C(Nc1ccnn1C1CCN(C/C=C/c2ccccc2)CC1)c1cccc(F)c1 | -1.52 | – | 14.6 µM [rising, single point] |
| Cc1cccc(/C=N/NC(=O)c2ccc(F)cc2)n1 | 19 | – | 6.51 µM [falling, single point] |
| O=C(O)CCCC(=O)Nc1ccc(Br)cc1 | 3.84 | – | – |
| Cn1nc(CC(=O)N2CCN(c3ccccc3)CC2)c2ccccc2c1=O | -17.6 | – | 20.6 µM [falling, single point] |
| Cc1cccc(NC(=O)CNC(=O)c2cc(C3CC3)nn2-c2ccccc2)c1C | -45.6 | 29.1 µM [falling, single point] | – |
| Cc1ccc(NS(=O)(=O)c2ccc3c(c2)NC(=O)C(C)C(=O)N3)c(Cl)c1 (stereo not given) | 8.93 | – | – |
| COc1ccccc1N(C)S(=O)(=O)c1ccc(C(=O)N2CCC(C(N)=O)CC2)cc1 | 36.5 | 13 µM [rising, partial curve] | – |
| Cc1nc2c(-c3ccccc3)c(C)[nH]n2c(=O)c1Cc1ccccc1 | -19.4 | – | 18.4 µM [falling, single point] |
| CCOC(=O)C1=NNC2C(=O)N(CC)C(=O)C12 (stereo not given) | – | – | 16.4 µM [falling, partial curve] |
| O=C1CCCC2=C1C(c1ccccc1)CC(=O)N2c1ccccc1 (stereo not given) | -12.1 | – | 18.4 µM [falling, single point] |
| COCCN(C(=O)C(C)C)c1nnc(-c2cccc(C)c2)s1 | -32.3 | 0.92 µM [falling, full curve, poor fit] | – |
| CCC(=Nc1ccc(Cc2ccncc2)cc1)c1c(O)n(C)c(=O)n(C)c1=O | – | 5.17 µM [rising, single point] | 29.1 µM [rising, partial curve] |
| Nc1nc(-c2ccc(Cl)cc2)cc(C(F)(F)F)n1 | – | – | 6.51 µM [rising, single point] |
| O=C(COc1ccccc1)NC1CCN(Cc2ccccc2)CC1 | -13.4 | – | – |
| CSC1=C(C#N)C2(CCCC2)C(C#N)=C(N)N1 | -4.15 | – | 0.00731 µM [rising, full curve, poor fit] |
| COc1ccc(-n2c(SCC(=O)Nc3ccccc3C)nc(O)c(Cc3ccccc3)c2=O)cc1 | -16.7 | – | 1.46 µM [rising, full curve] |

Structures above that have bromine (2):

| SMILES | cell number change [%] | AC50 [1] | AC50 [2] |
| --- | --- | --- | --- |
| O=C(CNc1ccc(Br)cc1)Nc1cccc(S(=O)(=O)N2CCCC2)c1 | 5.76 | 7.31 µM [falling, single point] | 0.651 µM [falling, full curve, poor fit] |
| O=C(O)CCCC(=O)Nc1ccc(Br)cc1 | 3.84 | – | – |

3 entries from above, ordered by formula weight, ascending.

| SMILES | cell number change [%] | AC50 [1] | AC50 [2] |
| --- | --- | --- | --- |
| COCCCn1c(-c2cccs2)nc2nc3ccccc3nc21 | 15.5 | – | – |
| Cc1nc2c(-c3ccccc3)c(C)[nH]n2c(=O)c1Cc1ccccc1 | -19.4 | – | 18.4 µM [falling, single point] |
| CCC(=N\NC(=O)COc1ccccc1OC)/C(CC)=N/NC(=O)COc1ccccc1OC | 6.72 | – | – |
